Data reported in PubChem BioAssay AID485314 (National Center for Advancing Translational Sciences (NCATS), 2010).
Among all 340,000 compounds or so, about 4,500 (1.3%) were called active. This list was built around the results that the source calls inconclusive (neither active nor inactive); the mix of calls is not that of the screen. Calls follow the shape of the dose curve; as a rule, active = well fitted inhibition curve with a large enough effect; inconclusive = small, poorly fitted or top-dose-only effect, or another doubt; inactive = no such curve, though single readings can be large or run the other way. A potency beside an inconclusive call is a rough fit, not a confirmed value.

Target: DNA polymerase beta (Homo sapiens) (UniProt P06746)
Assay: qHTS Assay for Inhibitors of DNA Polymerase Beta
Settings: Pol beta primer extension/strand displacement, fluorescence kinetic; series mostly up to 114 µM
Summary of the method: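 Human Pol beta at 10 nM; strand-displacement substrate 50 nM final. Compound exposure 15 min at room temperature before start, reaction 10 min at room temperature.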
Potency is read from the fitted curve at half-maximal effect.

Row | SMILES | Potency
1 | COc1ccc(Cl)cc1Nc1nc(N)c2ccccc2n1 | inconclusive: 89.1 µM [inhibitor, single point]
2 | O=C(COc1ccc([N+](=O)[O-])cc1)Nc1ccc2c(c1)nc1n2CCOC1 | inconclusive: 31.6 µM [inhibitor, full curve]
3 | O=C(Cn1c(=O)n(CC(=O)NCc2ccccc2)c2ccccc21)NCc1ccccc1 | inconclusive: 50.1 µM [inhibitor, partial curve]
4 | O=C(Cn1c(=O)oc2cc(S(=O)(=O)N3CCCC3)ccc21)NCc1ccc(Cl)cc1 | inconclusive: 28.2 µM [inhibitor, full curve]
5 | O=C(c1ccccc1NS(=O)(=O)c1ccc(F)cc1)N1CCCCC1 | inconclusive: 11.2 µM [inhibitor, full curve]
6 | COc1ccc(Cl)cc1NC(=O)C(C)N1CCc2ccccc21 (stereo unspecified) | inconclusive: 79.4 µM [inhibitor, single point]
7 | Clc1ccc(N2CCN(Cc3c[nH]c4ncccc34)CC2)cc1 | inconclusive: 39.8 µM [inhibitor, single point]
8 | CC1=Nc2cc(C(=O)NCc3ccc(C)cc3)ccc2Sc2ccc(Cl)cc21 | inactive
9 | CCC(C)[C@H](NC(=O)[C@@H]1CSC2c3ccccc3C(=O)N21)C(=O)NCc1ccco1 (stereo partly specified) | inconclusive: 63.1 µM [inhibitor, single point]
10 | COc1ccc2c(c1OC)C(=O)OC2N1C(=O)CC[C@H]1C(=O)NCC1CCCO1 (stereo partly specified) | inactive
11 | OCCN1CCN(c2nc(NCc3ccco3)c3ccccc3n2)CC1 | inconclusive: 89.1 µM [inhibitor, single point]
12 | CC1=C(C(=O)Nc2ccccc2)C(c2ccco2)C(C#N)=C(SCC(N)=O)N1 (stereo unspecified) | inconclusive: 89.1 µM [inhibitor, single point]
13 | CCOC(=O)c1cccc(NC(=O)c2cc3cc4cc(OC)ccc4nc3s2)c1 | inconclusive: 35.5 µM [inhibitor, partial curve]
14 | COc1cc(NC(=O)c2ccccc2)c(OC)cc1NC(=O)CSc1[nH]c(=O)cc(C)c1C#N | inconclusive: 44.7 µM [inhibitor, partial curve]
15 | N#CC1(NC(=O)COC(=O)/C=C/c2ccc3ccccc3n2)CCCCC1 | active: 12.6 µM
16 | CN(C)c1ccc(CNC(=O)C2CCCN(S(=O)(=O)c3ccc4c(ccn4C)c3)C2)cc1 (stereo unspecified) | inactive
17 | CCOC(=O)c1ccc(-c2ccc3c(=O)c4ccccc4n(C)c3c2)cc1F | inactive
18 | COc1ccc(NC(=O)Cn2nnc(C(=O)NCc3ccco3)c2N)c(OC)c1 | inconclusive: 0.355 µM [inhibitor, full curve, poor fit]
19 | CC(C)C[C@@H](C(=O)NCC1CCCO1)N1C(=O)N2CCc3c([nH]c4ccccc34)[C@@]2(C)C1=O (stereo partly specified) | inactive
20 | O=C(/C=C/c1cnc2ccccc2n1)NC12CC3CC(CC(C3)C1)C2 | active: 56.2 µM
21 | CC(C)OCCCn1c(-c2ccc(Br)cc2)c[nH]c1=S | inactive
22 | CCCCC(=O)NC(c1ccco1)c1cc(Cl)c2cccnc2c1O (stereo unspecified) | inconclusive: 6.31 µM [inhibitor, full curve]

Row | SMILES | Potency
23 | Cc1ccc(C(=O)Nc2cccc(-c3cn4ccccc4n3)c2)cc1 | inconclusive: 50.1 µM [inhibitor, partial curve]
24 | O=C(C1CCC(Cn2c(=O)c3sccc3n(Cc3ccccc3F)c2=O)CC1)N1CCOCC1 (stereo unspecified) | inactive
25 | COc1cc(NC(=O)c2cc3c(=O)n(Cc4ccco4)ccc3nc2C)cc(OC)c1OC | inactive
26 | O=C1C2C3C=CC(C4CC34)C2C(=O)N1/N=C/c1ccc(-c2ccc(Cl)cc2[N+](=O)[O-])o1 (stereo unspecified) | inactive
27 | CCOc1ccc(NC(=O)CN2C(=O)c3ccccc3Sc3ccc(C(=O)OC)cc32)cc1 | active: 79.4 µM
28 | Cc1cccc(-n2nc3c(c2NC(=O)c2ccco2)CSC3)c1C | inconclusive: 25.1 µM [inhibitor, full curve]
29 | CC1=NOC(=O)/C1=C\c1ccc(-c2ccc(Cl)c(C(=O)O)c2)o1 | active: 14.1 µM
30 | O=C(Nc1ccc([N+](=O)[O-])cc1)Nc1cnccn1 | active: 39.8 µM
31 | CCC(C)(C)NC(=O)C(c1cccc(OC)c1OC)N(C(=O)CCC(=O)Nc1cc(C)on1)c1ccc2c(c1)OCCO2 (stereo unspecified) | inconclusive: 0.141 µM [inhibitor, full curve, poor fit]
32 | Cc1ccc(C2CC(c3ccccc3)=NN2C(=O)CSc2nnc(-c3ccncc3)n2C)o1 (stereo unspecified) | inconclusive: 89.1 µM [inhibitor, single point]
33 | C#CCNC(=O)C1CCN(c2cc(C)nc(-c3ccccc3)n2)CC1 | inconclusive: 17.8 µM [inhibitor, full curve, poor fit]
34 | CC(/C=N\NC(=O)Cn1c(C)nc2ccccc21)=C\c1ccccc1 | inconclusive: 14.1 µM [inhibitor, full curve, poor fit]
35 | Cc1ccnc(NS(=O)(=O)c2ccc(NC(=O)c3ccc([N+](=O)[O-])s3)cc2)n1 | inconclusive: 31.6 µM [inhibitor, single point]
36 | Cc1ccc(C(=O)Nn2c(O)c(C=C3N=c4ccccc4=N3)sc2=S)cc1 | inconclusive: 2.82 µM [inhibitor, single point]
37 | O=C(Nc1cccc(C(F)(F)F)c1)c1cc2nc(-c3ccco3)cc(C(F)(F)Cl)n2n1 | inconclusive: 20 µM [inhibitor, single point]
38 | Cc1ccc(NC(=O)COc2cccnc2[N+](=O)[O-])cc1S(=O)(=O)N1CCCCC1 | inconclusive: 39.8 µM [inhibitor, single point]
39 | Cc1ccc(S(=O)(=O)c2nnn(CC(=O)Nc3ccccc3C)c2N)cc1 | inconclusive: 22.4 µM [inhibitor, full curve]
40 | CCOC(=O)c1c(C)n(C)c2cc(OCCN(CC)CC)ccc12 | inconclusive: 89.1 µM [inhibitor, single point]
41 | CC(=O)N1CCOc2ccc(S(=O)(=O)N3CCC(C(=O)Nc4ccccc4F)CC3)cc21 | inconclusive: 0.141 µM [inhibitor, full curve, poor fit]
42 | Cc1c(NS(=O)(=O)c2ccc3c(c2)NC(=O)CC(=O)N3)cccc1[N+](=O)[O-] | inconclusive: 0.158 µM [inhibitor, full curve, poor fit]
43 | O=C(NCc1ccco1)c1ccc(Cn2c(=S)[nH]c3ccccc3c2=O)cc1 | active: 20 µM
44 | Cc1cc(C)nc(NC(=O)CSc2nn(-c3ccccc3)c(=S)s2)n1 | active: 39.8 µM

3 entries from above, in CSV form:
Row,SMILES,Potency
24,O=C(C1CCC(Cn2c(=O)c3sccc3n(Cc3ccccc3F)c2=O)CC1)N1CCOCC1 (stereo unspecified),inactive
25,COc1cc(NC(=O)c2cc3c(=O)n(Cc4ccco4)ccc3nc2C)cc(OC)c1OC,inactive
26,O=C1C2C3C=CC(C4CC34)C2C(=O)N1/N=C/c1ccc(-c2ccc(Cl)cc2[N+](=O)[O-])o1 (stereo unspecified),inactive

Remaining list, next part

Row | SMILES | Potency
45 | COc1ccc(NS(=O)(=O)c2ccc(C)c(C(=O)O)c2)cc1 | active: 44.7 µM
46 | CCCN(CCC)S(=O)(=O)c1ccc(NC(=O)Cc2cccs2)cc1 | inconclusive: 14.1 µM [inhibitor, full curve, poor fit]
47 | Cc1sc2ncn(CC(=O)N3CCN(c4ccc(F)cc4)CC3)c(=O)c2c1S(=O)(=O)N1CCCCC1 | inactive
48 | Cc1ccc(-c2cc(C(=O)N/N=C/c3c(C)nn(-c4ccccc4)c3C)n[nH]2)s1 | inconclusive: 44.7 µM [inhibitor, partial curve]
49 | CCOC(=O)C1=C(C)Nc2ccccc2N=C1NC(=O)c1ccc(Cl)c(S(=O)(=O)N2CCCC2)c1 | inconclusive: 44.7 µM [inhibitor, partial curve]
50 | CCCCNC(=O)c1ccc2c(c1)NC(=O)C(CS(=O)(=O)Cc1cccc(C)c1)N2 (stereo unspecified) | active: 28.2 µM
51 | CC(C)C(=O)N1c2ncnn2C2(CCCCC2)[C@@H]2CCCC[C@@H]21 | inactive
52 | O=C(O)c1cc(N/N=C/c2ccc(-c3ccccc3)cc2)ccc1Cl | active: 89.1 µM
53 | COc1cc(-c2cc(=O)c3c(O)cc(O)cc3o2)ccc1O | inconclusive: 39.8 µM [inhibitor, partial curve]
54 | Cc1ccc(C)c(N2CCN(S(=O)(=O)c3ccc4[nH]c(=O)ccc4c3)CC2)c1 | active: 28.2 µM
55 | CSc1nc(SCC(N)=O)c2c3c(sc2n1)CN(C)CC3 | inconclusive: 15.8 µM [inhibitor, full curve, poor fit]
56 | Cc1ccc(S(=O)(=O)C2(C(=O)NCc3ccccc3Cl)CC2)cc1 | inconclusive: 3.98 µM [inhibitor, full curve]
57 | COC(=O)c1ccccc1NC(=O)CN(c1c(C)cccc1C)S(C)(=O)=O | inconclusive: 22.4 µM [inhibitor, single point]
58 | O=C(c1ccco1)n1nc(-c2ccccc2)nc1NCc1ccc(F)cc1 | inconclusive: 0.631 µM [inhibitor, full curve, poor fit]
59 | Cc1cc(C)n2nc(C(=O)OCC(=O)c3cc(C)n(C)c3C)nc2n1 | active: 31.6 µM
60 | Cc1ccn2c(/C=N/OCc3ccc(F)cc3)c(-c3ccc(Cl)cc3)nc2c1 | inconclusive: 3.98 µM [inhibitor, single point]
61 | COCCCNC(=O)c1sc2nc3n(c(=O)c2c1C)CCC3 | inconclusive: 89.1 µM [inhibitor, single point]
62 | COc1cc(/C=C2\CCc3c2nc2ccccc2c3C(=O)O)cc(OC)c1OC | active: 3.16 µM
63 | O=[N+]([O-])c1cc(Cl)cc2c1nc(NCCO)c1ccccc12 | inconclusive: 14.1 µM [inhibitor, full curve, poor fit]
64 | O=C(Nc1ccc(N2CCOCC2)c(S(=O)(=O)Nc2cc(Cl)ccc2Cl)c1)c1cccnc1 | inconclusive: 22.4 µM [inhibitor, partial curve]
65 | COc1ccc(-c2[nH]c(-c3ccccc3)nc2SCC(=O)NCc2ccco2)cc1OC | active: 39.8 µM
66 | N#Cc1c(CSCC(=O)O)cc(=O)n2c1[nH]c1ccccc12 | inconclusive: 31.6 µM [inhibitor, single point]
